# Measurements published in US20150291695A1 (CANCER RESEARCH TECHNOLOGY, published 2015).
# Sequences of proteins named here, by UniProt entry; tags and fusion partners are left off. A change or cut given only in a name is not applied to a line headed by its entry.
# UniProt P06756: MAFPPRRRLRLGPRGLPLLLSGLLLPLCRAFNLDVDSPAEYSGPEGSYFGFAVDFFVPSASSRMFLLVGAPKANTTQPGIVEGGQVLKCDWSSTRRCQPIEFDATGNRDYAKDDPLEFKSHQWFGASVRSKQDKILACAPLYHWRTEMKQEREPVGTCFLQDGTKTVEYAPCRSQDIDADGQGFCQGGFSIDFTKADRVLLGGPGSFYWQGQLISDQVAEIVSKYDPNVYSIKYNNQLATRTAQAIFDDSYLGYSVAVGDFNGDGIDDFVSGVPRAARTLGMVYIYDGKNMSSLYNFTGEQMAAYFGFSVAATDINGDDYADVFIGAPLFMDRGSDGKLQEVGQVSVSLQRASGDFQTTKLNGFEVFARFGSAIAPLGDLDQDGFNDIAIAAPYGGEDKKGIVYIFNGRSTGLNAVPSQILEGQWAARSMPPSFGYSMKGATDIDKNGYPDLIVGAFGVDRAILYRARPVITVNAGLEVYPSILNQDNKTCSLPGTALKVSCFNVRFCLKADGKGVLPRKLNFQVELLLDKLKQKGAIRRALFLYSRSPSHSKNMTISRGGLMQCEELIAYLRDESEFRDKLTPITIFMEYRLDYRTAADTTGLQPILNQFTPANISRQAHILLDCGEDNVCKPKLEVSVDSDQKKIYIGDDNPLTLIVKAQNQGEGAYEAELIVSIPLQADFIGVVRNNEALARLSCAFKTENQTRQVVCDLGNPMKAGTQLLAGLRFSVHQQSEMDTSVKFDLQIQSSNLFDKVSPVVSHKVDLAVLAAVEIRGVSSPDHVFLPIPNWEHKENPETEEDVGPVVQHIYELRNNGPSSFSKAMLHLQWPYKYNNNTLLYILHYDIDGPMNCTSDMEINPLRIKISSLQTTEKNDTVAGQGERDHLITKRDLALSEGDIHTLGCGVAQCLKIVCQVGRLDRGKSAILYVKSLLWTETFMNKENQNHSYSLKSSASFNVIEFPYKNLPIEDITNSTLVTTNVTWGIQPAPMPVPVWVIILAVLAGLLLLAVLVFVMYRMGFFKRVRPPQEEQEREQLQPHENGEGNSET
# Results are given in words; binding and its absence hold for the method and conditions named. Some binding calls cover weakened binding; strength is not graded here.
# Columns and labels:
# [1] = molecular target: αvβ6 integrin, immobilized (UniProt P06756); test: ELISA on immobilized αvβ6, 20 µg/ml
# [2] = molecular target: αvβ6 integrin, immobilized (UniProt P06756); test: ELISA on immobilized αvβ6, rabbit anti-MFE detection
binder,measurement,setting,value
NFEVP1 (scFv) scFv: QVKLQQSGAELVRSGTSVKLSCTASGFNIKDSYMHWLRQGPEQGLEWIGWIDPENGDTEYAPKFQGKATFTTDTSSNTAYLQLSSLTSEDTAVYYCNEGTPTAVPNLRGDLQVLAQKVAGPYPFDYWGQGTTVTVSSGGGGSGGGGSGGGGSENVLTQSPAIMSASPGEKVTITCSASSSVSYMHWFQQKPGTSPKLWIYSTSNLASGVPARFSGSGSGTSYSLTISRMEAEDAATYYCQQRSSYPLTFGAGTKLELKRAAAHHHHHH,binding,[1],binds
same,binding,[2],binds
